Test results as given in patent US20110105472A1, “Diaminopyrimidines as crop protection agents” (Bayer CropScience AG, priority 2008, published 2011).
Some of these results come from one statement about several compounds together.

Key:
Puccinia recondita = assay: Puccinia test (wheat)/protective; settings: active compound concentration 1000 ppm, protective, evaluation 10 days after inoculation
Sphaerotheca fuliginea = assay: Sphaerotheca test (cucumber)/protective; format: in vivo; settings: active compound concentration 500 ppm, protective, evaluation 7 days after inoculation
Alternaria solani = assay: Alternaria test (tomato)/protective; format: in vivo; settings: active compound concentration 500 ppm, protective, evaluation 7 days after inoculation

Compound | efficacy (Puccinia recondita) [%] | efficacy (Sphaerotheca fuliginea) [%] | efficacy (Alternaria solani) [%]
Brc1cnc(Nc2ccc3[nH]ccc3c2)nc1NC1CCC1 [Compound 1] | ≥ 70 | ≥ 70 | –
Brc1cnc(Nc2ccc3cc[nH]c3c2)nc1NC1CCC1 [Compound 2] | ≥ 70 | – | –
O=C1CCc2cc(Nc3ncc(Br)c(NC4CCC4)n3)ccc2N1 [Compound 4] | ≥ 70 | – | ≥ 70
O=C1COc2ccc(Nc3ncc(Br)c(NC4CCC4)n3)cc2N1 [Compound 6] | ≥ 70 | – | –
Cc1nc2cc(Nc3ncc(Br)c(NC4CCC4)n3)ccc2s1 [Compound 10] | ≥ 70 | – | –
CC(=O)N1CCc2ccc(Nc3ncc(Br)c(NC4CCC4)n3)cc21 [Compound 12] | ≥ 70 | – | –
CN1C(=O)COc2ccc(Nc3ncc(Br)c(NC4CCC4)n3)cc21 [Compound 13] | ≥ 70 | – | –
O=C1CCCc2ccc(Nc3ncc(Br)c(NC4CCC4)n3)cc2N1 [Compound 15] | ≥ 70 | – | –
O=c1[nH]c2cc(Nc3ncc(Br)c(NC4CCC4)n3)ccc2o1 [Compound 16] | ≥ 70 | – | ≥ 70
FC1(F)Oc2ccc(Nc3ncc(Br)c(NC4CCC4)n3)cc2OC1(F)F [Compound 18] | ≥ 70 | – | –
Brc1cnc(Nc2ccc3c(c2)OCO3)nc1NC1CCC1 [Compound 19] | ≥ 70 | ≥ 70 | –
Brc1cnc(Nc2cccc(-c3nccs3)c2)nc1NC1CCC1 [Compound 33] | ≥ 70 | – | –
CSc1cccc(Nc2ncc(Br)c(NC3CCC3)n2)c1 [Compound 44] | ≥ 70 | ≥ 70 | –
Fc1ccc(Nc2ncc(Cl)c(NC3CCC3)n2)cc1 [Compound 47] | – | ≥ 70 | –
CC1(Nc2nc(Nc3ccccc3)ncc2Cl)CCC1 [Compound 52, 5-Chloro-N^4-(1-methylcyclobutyl)-N^2-phenylpyrimidine-2,4-diamine] | – | – | ≥ 70
COc1cc(Nc2ncc(Br)c(NC3CCC3)n2)cc(OC)c1 [Compound 53] | ≥ 70 | – | –
FC(F)(F)c1cnc(Nc2ccccc2)nc1NC1CCC1 [Compound 54, N^4-Cyclobutyl-N^2-phenyl-5-(trifluoromethyl)pyrimidine-2,4-diamine] | ≥ 70 | ≥ 70 | –
Fc1ccc(Nc2ncc(C(F)(F)F)c(NC3CCC3)n2)cc1 [Compound 58] | ≥ 70 | ≥ 70 | –
Cc1ccccc1Nc1ncc(Br)c(NC2CCC2)n1 [Compound 60] | ≥ 70 | ≥ 70 | –
Fc1ccc(Nc2ncc(Br)c(NC3CCC3)n2)cc1 [Compound 62] | ≥ 70 | ≥ 70 | –
Fc1cc(C(F)(F)F)ccc1Nc1ncc(Br)c(NC2CCC2)n1 [Compound 63] | ≥ 70 | ≥ 70 | –

Compound | efficacy (Puccinia recondita) [%] | efficacy (Sphaerotheca fuliginea) [%] | efficacy (Alternaria solani) [%]
N#Cc1cccc(Nc2ncc(Br)c(NC3CCC3)n2)c1 [Compound 64] | ≥ 70 | ≥ 70 | –
Cc1ccc(NS(=O)(=O)c2cc(Nc3ncc(Br)c(NC4CCC4)n3)ccc2C)cc1 [Compound 66] | ≥ 70 | – | –
COc1ccccc1Nc1ncc(Br)c(NC2CCC2)n1 [Compound 68] | ≥ 70 | – | –
N#Cc1ccc(Nc2ncc(Br)c(NC3CCC3)n2)cc1 [Compound 70] | ≥ 70 | – | –
FC(F)(F)Sc1ccc(Nc2ncc(Br)c(NC3CCC3)n2)cc1 [Compound 71] | ≥ 70 | – | –
O=C(Nc1ccccc1)c1ccc(Nc2ncc(Br)c(NC3CCC3)n2)cc1 [Compound 72] | ≥ 70 | – | –
CSc1ccc(Nc2ncc(Br)c(NC3CCC3)n2)cc1Cl [Compound 73] | ≥ 70 | ≥ 70 | –
Brc1cnc(Nc2ccc(-c3cscn3)cc2)nc1NC1CCC1 [Compound 74] | ≥ 70 | – | –
FC(F)Oc1ccc(Nc2ncc(Br)c(NC3CCC3)n2)cc1 [Compound 75] | ≥ 70 | ≥ 70 | –
Clc1cc(Cl)cc(Nc2ncc(Br)c(NC3CCC3)n2)c1 [Compound 76] | – | ≥ 70 | –
CCOC(=O)c1cccc(Nc2ncc(Br)c(NC3CCC3)n2)c1 [Compound 77] | ≥ 70 | ≥ 70 | –
NS(=O)(=O)c1cc(Nc2ncc(Br)c(NC3CCC3)n2)ccc1Cl [Compound 79] | ≥ 70 | ≥ 70 | –
Oc1ccc(Nc2ncc(Br)c(NC3CCC3)n2)c(F)c1 [Compound 80] | ≥ 70 | – | –
FC(F)(F)Oc1ccc(Nc2ncc(Br)c(NC3CCC3)n2)cc1Cl [Compound 81] | ≥ 70 | – | –
C=CC(=O)Nc1cccc(Nc2ncc(Br)c(NC3CCC3)n2)c1 [Compound 82] | ≥ 70 | ≥ 70 | –
CS(=O)(=O)Nc1ccc(Nc2ncc(Br)c(NC3CCC3)n2)cc1 [Compound 85] | ≥ 70 | – | –
CN(C)S(=O)(=O)Oc1cccc(Nc2ncc(Br)c(NC3CCC3)n2)c1 [Compound 89] | ≥ 70 | – | –
COc1cc(Nc2ncc(Br)c(NC3CCC3)n2)ccc1NC(C)=O [Compound 90] | ≥ 70 | – | ≥ 70
CN(C)S(=O)(=O)c1ccc(Nc2ncc(Br)c(NC3CCC3)n2)cc1 [Compound 91] | ≥ 70 | – | –
CC(C)(C)C(=O)Nc1ccc(Nc2ncc(Br)c(NC3CCC3)n2)cc1 [Compound 92] | ≥ 70 | – | –
O=C(Nc1ccc(Nc2ncc(Br)c(NC3CCC3)n2)cc1)C(F)(F)F [Compound 95] | ≥ 70 | – | –

Compound | efficacy (Puccinia recondita) [%] | efficacy (Sphaerotheca fuliginea) [%] | efficacy (Alternaria solani) [%]
C=C(C)C(=O)Nc1cccc(Nc2ncc(Br)c(NC3CCC3)n2)c1 [Compound 98] | ≥ 70 | – | –
CC(C)(C)C(=O)Nc1cccc(Nc2ncc(Br)c(NC3CCC3)n2)c1 [Compound 99] | ≥ 70 | – | –
CNC(=O)c1ccc(Nc2ncc(Br)c(NC3CCC3)n2)cc1 [Compound 101] | ≥ 70 | – | –
CCOC(=O)Nc1cccc(Nc2ncc(Br)c(NC3CCC3)n2)c1 [Compound 105] | ≥ 70 | – | –
COc1cc(Nc2ncc(Cl)c(NC3CCC3)n2)ccc1NC(C)=O [Compound 108] | ≥ 70 | – | –
CC(=O)Nc1ccc(Nc2ncc(Cl)c(NC3CCC3)n2)cc1Cl [Compound 118] | – | – | ≥ 70
CC(=O)N(C)c1ccc(Nc2ncc(Cl)c(NC3CCC3)n2)cc1 [Compound 120] | – | – | ≥ 70
CN(C)S(=O)(=O)Oc1ccc(Nc2ncc(Br)c(NC3CCC3)n2)cc1 [Compound 160] | ≥ 70 | – | –
CC(C)(C)OC(=O)Nc1ccc(Nc2ncc(Br)c(NC3CCC3)n2)cc1 [Compound 162] | ≥ 70 | – | –
CC(C)(CCl)C(=O)Nc1ccc(Nc2ncc(Br)c(NC3CCC3)n2)cc1 [Compound 165] | – | – | ≥ 70
CC(C)(CF)C(=O)Nc1ccc(Nc2ncc(Br)c(NC3CCC3)n2)cc1 [Compound 171] | ≥ 70 | – | –
CCC(=O)c1ccc(Nc2ncc(Br)c(NC3CCC3)n2)cc1 [Compound 172] | ≥ 70 | – | –
O=C1OCCN1c1ccc(Nc2ncc(Br)c(NC3CCC3)n2)cc1 [Compound 173] | ≥ 70 | – | –
O=C1CCCN1c1ccc(Nc2ncc(Br)c(NC3CCC3)n2)cc1 [Compound 174] | ≥ 70 | – | –
CC(=O)c1cc(Nc2ncc(Br)c(NC3CCC3)n2)ccc1O [Compound 177] | ≥ 70 | – | –
CS(=O)(=O)c1ccc(Nc2ncc(Br)c(NC3CCC3)n2)cc1 [Compound 179] | ≥ 70 | – | –
O=C(NC1CC1)c1cccc(Nc2ncc(Br)c(NC3CCC3)n2)c1 [Compound 180] | ≥ 70 | – | –
O=C(NCC(F)(F)F)c1cccc(Nc2ncc(Br)c(NC3CCC3)n2)c1 [Compound 181] | ≥ 70 | – | –
Oc1ccc(Nc2ncc(Br)c(NC3CCC3)n2)cc1F [Compound 184] | ≥ 70 | – | –
CC(=O)Nc1ccc(Nc2ncc(Br)c(NC3CCC3)n2)cc1Cl [Compound 186] | ≥ 70 | – | –
O=C1NC(=O)C(c2ccc(Nc3ncc(Br)c(NC4CCC4)n3)cc2)N1 (stereo not shown) [Compound 187] | ≥ 70 | – | –

Compound | efficacy (Puccinia recondita) [%] | efficacy (Sphaerotheca fuliginea) [%] | efficacy (Alternaria solani) [%]
CNC(=O)c1cccc(Nc2ncc(Br)c(NC3CCC3)n2)c1 [Compound 192] | ≥ 70 | – | –
CCOC(=O)Nc1ccc(Nc2ncc(Br)c(NC3CCC3)n2)cc1 [Compound 195] | ≥ 70 | – | –
O=C(c1ccc(Nc2ncc(Br)c(NC3CCC3)n2)cc1)C(F)(F)F [Compound 197] | ≥ 70 | – | –
FC(F)Sc1ccc(Nc2ncc(Br)c(NC3CCC3)n2)cc1 [Compound 202] | ≥ 70 | – | –
O=C1CCCCN1c1cccc(Nc2ncc(Cl)c(NC3CCC3)n2)c1 [Compound 204] | ≥ 70 | – | –
O=C1CCCN1c1cc(Nc2ncc(C(F)(F)F)c(NC3CCC3)n2)ccc1F [Compound 211] | ≥ 70 | – | –
O=C1CCCCCN1c1cccc(Nc2ncc(Cl)c(NC3CCC3)n2)c1 [Compound 216] | ≥ 70 | ≥ 70 | –
CN(C)C(=O)c1ccc(Nc2ncc(C(F)(F)F)c(NC3CCC3)n2)cc1 [Compound 221] | ≥ 70 | – | –
CCc1cc(Nc2ncc(Cl)c(NC3CCC3)n2)ccc1C [Compound 222] | – | ≥ 70 | –
CCSc1cccc(Nc2ncc(Br)c(NC3CCC3)n2)c1 [Compound 228] | ≥ 70 | – | –
CCN(C)C(=O)c1ccc(Nc2ncc(Cl)c(NC3CCC3)n2)cc1 [Compound 246] | ≥ 70 | ≥ 70 | –
CC(C)NC(=O)c1ccc(Nc2ncc(Cl)c(NC3CCC3)n2)cc1 [Compound 248] | ≥ 70 | – | –
O=C(c1ccc(Nc2ncc(Cl)c(NC3CCC3)n2)cc1)N1CCOCC1 [Compound 249] | ≥ 70 | ≥ 70 | –
CCN(CC)C(=O)c1ccc(Nc2ncc(Cl)c(NC3CCC3)n2)cc1 [Compound 250] | ≥ 70 | – | –
CC(C)(C)c1cccc(Nc2ncc(Br)c(NC3CCC3)n2)c1 [Compound 254] | – | ≥ 70 | –
CC(C)(C)c1cccc(Nc2ncc(C(F)(F)F)c(NC3CCC3)n2)c1 [Compound 259] | ≥ 70 | ≥ 70 | –
O=C(c1cccc(Nc2ncc(Cl)c(NC3CCC3)n2)c1)N1CCOCC1 [Compound 262] | ≥ 70 | – | –
CS(=O)(=O)c1cccc(Nc2ncc(Cl)c(NC3CCC3)n2)c1 [Compound 263] | ≥ 70 | ≥ 70 | –
